Experimental data published in paper PMC9114115, “Property space mapping of Pseudomonas aeruginosa permeability to small molecules” (Scientific Reports, 2022).
“And” between values parts separate entries of the source, which are not always exact repeats. Equal entries are not always repeated. Structures can show the parent of a compound that is named as a salt.

What was measured:
P. aeruginosa PΔ3-Pore = assay: MIC by two-fold dilution, barrierless PΔ3-Pore; assay type: cell-based; conditions: Pseudomonas aeruginosa, read-out: MICs, P∆3-Pore, MOPS-M9 medium
Description: (§1) In all experiments, P. aeruginosa PAO1-Pore (PAO1 attTn7::PLAC-fhuA) and PΔ3-Pore (ΔmexAB ΔmexCD ΔmexXY attTn7::PLAC-fhuA) strains were used[29]. Strains were routinely grown in Luria–Bertani (LB) or MOPS-M9 medium at 37 °C with aeration. MICs shown in Tables 1 and 2 were determined by a two-fold dilution method in LB broth and MOPS-M9 medium, respectively, following the previously described protocol.

P. aeruginosa PΔ3 = assay: microbe, parasite or virus in culture; assay type: cell-based; conditions: Pseudomonas aeruginosa, read-out: MICs
Description: as §1

CCn1cc(C(=O)O)c(=O)c2cc(F)c(N3CCN(C)CC3)cc21 [OU-0000619, PEFLOXACINE MESYLATE]
MIC (P. aeruginosa PΔ3-Pore): 0.0625 µM
MIC (P. aeruginosa PΔ3): 0.5 µM and 0.21 µg/mL
